We go through 38 targets from the supplement of paper PMC10849652.

By UniProt entry, the sequences of proteins in these tests, tags left out. Where a name states a change or a piece, a line headed by the entry shows the natural chain unless it says otherwise.
UniProt Q9UNS2: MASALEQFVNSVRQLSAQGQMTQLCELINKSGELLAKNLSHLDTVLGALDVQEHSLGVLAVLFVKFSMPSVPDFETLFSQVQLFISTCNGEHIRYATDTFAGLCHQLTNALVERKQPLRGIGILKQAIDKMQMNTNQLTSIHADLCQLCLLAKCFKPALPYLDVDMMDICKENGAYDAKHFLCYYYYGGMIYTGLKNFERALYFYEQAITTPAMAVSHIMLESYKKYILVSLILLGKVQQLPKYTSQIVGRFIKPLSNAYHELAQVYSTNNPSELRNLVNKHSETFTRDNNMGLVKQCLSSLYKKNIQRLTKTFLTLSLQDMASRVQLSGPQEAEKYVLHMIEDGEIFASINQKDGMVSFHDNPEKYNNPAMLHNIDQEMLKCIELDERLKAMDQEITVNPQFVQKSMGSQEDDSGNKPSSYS
UniProt Q9UIV1, whole entry, looked up: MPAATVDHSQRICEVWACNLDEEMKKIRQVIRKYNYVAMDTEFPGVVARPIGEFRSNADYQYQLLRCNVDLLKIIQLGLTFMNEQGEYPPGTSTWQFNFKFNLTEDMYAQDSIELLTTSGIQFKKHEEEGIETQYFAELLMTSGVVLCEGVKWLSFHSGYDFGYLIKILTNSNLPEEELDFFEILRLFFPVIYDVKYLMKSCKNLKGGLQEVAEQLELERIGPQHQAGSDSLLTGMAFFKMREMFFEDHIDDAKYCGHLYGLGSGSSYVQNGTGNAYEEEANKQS
UniProt O75175, whole entry, looked up: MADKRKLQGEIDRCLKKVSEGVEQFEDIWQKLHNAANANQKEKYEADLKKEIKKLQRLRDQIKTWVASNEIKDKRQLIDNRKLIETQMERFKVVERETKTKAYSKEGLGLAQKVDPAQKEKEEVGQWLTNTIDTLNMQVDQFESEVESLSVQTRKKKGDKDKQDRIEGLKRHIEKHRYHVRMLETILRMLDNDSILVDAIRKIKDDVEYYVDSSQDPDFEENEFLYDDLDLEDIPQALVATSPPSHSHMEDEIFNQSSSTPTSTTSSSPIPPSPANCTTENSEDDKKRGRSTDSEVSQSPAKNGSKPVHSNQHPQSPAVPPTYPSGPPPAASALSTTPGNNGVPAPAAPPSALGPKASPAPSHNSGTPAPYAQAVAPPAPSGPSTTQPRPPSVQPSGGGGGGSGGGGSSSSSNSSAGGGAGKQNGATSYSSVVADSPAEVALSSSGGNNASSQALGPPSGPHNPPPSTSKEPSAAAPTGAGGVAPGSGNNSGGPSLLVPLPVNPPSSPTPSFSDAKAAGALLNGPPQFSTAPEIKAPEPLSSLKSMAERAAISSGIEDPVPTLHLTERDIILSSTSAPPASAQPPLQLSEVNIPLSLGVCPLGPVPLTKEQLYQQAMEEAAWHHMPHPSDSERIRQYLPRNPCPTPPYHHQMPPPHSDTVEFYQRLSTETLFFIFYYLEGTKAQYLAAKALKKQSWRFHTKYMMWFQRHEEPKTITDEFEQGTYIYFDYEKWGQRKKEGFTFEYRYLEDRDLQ
UniProt Q8N9A8: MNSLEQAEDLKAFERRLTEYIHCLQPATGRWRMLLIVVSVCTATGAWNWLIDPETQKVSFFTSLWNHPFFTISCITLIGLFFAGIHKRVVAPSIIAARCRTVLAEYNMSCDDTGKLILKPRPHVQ
UniProt Q92905, whole entry, looked up: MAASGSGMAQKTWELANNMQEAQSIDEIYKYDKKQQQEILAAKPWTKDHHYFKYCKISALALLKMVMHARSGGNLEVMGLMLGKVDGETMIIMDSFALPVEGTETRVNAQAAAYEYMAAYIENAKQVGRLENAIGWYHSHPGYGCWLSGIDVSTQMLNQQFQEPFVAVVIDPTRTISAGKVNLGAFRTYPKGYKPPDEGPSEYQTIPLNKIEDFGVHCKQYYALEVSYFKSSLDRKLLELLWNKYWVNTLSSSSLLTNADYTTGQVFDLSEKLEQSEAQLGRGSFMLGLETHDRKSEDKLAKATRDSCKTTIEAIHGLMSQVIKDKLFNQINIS
UniProt Q9NZN8, whole entry, looked up: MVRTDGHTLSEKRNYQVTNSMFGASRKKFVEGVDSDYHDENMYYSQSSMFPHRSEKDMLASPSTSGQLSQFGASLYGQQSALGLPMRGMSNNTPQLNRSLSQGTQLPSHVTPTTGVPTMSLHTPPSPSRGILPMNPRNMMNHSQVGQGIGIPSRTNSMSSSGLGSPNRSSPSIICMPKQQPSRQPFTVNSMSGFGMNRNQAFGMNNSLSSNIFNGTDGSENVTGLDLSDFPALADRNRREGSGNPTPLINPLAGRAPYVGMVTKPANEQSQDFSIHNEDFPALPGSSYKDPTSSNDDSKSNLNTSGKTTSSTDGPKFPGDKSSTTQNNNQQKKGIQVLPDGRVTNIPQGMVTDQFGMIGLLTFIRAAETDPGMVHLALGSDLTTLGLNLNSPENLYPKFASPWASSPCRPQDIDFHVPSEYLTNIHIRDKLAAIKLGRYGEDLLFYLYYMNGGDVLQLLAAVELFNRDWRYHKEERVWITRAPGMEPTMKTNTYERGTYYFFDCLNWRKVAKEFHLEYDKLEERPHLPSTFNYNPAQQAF
UniProt P10606, whole entry, looked up: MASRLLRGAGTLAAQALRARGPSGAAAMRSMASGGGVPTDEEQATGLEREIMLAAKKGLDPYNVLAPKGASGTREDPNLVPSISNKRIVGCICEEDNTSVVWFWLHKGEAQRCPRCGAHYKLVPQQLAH
UniProt Q9P000, whole entry, looked up: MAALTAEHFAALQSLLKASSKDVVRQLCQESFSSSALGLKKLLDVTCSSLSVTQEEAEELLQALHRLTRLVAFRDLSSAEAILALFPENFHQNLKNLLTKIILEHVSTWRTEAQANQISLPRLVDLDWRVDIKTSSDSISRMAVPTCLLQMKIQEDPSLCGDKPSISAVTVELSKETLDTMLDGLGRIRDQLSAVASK
UniProt Q92600, whole entry, looked up: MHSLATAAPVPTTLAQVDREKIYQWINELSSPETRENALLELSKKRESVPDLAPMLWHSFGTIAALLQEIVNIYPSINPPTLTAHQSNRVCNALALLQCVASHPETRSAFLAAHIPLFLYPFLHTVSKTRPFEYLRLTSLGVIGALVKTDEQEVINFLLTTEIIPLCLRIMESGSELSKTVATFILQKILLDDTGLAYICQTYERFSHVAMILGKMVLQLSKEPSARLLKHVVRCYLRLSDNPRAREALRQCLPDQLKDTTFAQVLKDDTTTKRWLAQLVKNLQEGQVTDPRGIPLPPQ
UniProt A5YKK6, whole entry, looked up: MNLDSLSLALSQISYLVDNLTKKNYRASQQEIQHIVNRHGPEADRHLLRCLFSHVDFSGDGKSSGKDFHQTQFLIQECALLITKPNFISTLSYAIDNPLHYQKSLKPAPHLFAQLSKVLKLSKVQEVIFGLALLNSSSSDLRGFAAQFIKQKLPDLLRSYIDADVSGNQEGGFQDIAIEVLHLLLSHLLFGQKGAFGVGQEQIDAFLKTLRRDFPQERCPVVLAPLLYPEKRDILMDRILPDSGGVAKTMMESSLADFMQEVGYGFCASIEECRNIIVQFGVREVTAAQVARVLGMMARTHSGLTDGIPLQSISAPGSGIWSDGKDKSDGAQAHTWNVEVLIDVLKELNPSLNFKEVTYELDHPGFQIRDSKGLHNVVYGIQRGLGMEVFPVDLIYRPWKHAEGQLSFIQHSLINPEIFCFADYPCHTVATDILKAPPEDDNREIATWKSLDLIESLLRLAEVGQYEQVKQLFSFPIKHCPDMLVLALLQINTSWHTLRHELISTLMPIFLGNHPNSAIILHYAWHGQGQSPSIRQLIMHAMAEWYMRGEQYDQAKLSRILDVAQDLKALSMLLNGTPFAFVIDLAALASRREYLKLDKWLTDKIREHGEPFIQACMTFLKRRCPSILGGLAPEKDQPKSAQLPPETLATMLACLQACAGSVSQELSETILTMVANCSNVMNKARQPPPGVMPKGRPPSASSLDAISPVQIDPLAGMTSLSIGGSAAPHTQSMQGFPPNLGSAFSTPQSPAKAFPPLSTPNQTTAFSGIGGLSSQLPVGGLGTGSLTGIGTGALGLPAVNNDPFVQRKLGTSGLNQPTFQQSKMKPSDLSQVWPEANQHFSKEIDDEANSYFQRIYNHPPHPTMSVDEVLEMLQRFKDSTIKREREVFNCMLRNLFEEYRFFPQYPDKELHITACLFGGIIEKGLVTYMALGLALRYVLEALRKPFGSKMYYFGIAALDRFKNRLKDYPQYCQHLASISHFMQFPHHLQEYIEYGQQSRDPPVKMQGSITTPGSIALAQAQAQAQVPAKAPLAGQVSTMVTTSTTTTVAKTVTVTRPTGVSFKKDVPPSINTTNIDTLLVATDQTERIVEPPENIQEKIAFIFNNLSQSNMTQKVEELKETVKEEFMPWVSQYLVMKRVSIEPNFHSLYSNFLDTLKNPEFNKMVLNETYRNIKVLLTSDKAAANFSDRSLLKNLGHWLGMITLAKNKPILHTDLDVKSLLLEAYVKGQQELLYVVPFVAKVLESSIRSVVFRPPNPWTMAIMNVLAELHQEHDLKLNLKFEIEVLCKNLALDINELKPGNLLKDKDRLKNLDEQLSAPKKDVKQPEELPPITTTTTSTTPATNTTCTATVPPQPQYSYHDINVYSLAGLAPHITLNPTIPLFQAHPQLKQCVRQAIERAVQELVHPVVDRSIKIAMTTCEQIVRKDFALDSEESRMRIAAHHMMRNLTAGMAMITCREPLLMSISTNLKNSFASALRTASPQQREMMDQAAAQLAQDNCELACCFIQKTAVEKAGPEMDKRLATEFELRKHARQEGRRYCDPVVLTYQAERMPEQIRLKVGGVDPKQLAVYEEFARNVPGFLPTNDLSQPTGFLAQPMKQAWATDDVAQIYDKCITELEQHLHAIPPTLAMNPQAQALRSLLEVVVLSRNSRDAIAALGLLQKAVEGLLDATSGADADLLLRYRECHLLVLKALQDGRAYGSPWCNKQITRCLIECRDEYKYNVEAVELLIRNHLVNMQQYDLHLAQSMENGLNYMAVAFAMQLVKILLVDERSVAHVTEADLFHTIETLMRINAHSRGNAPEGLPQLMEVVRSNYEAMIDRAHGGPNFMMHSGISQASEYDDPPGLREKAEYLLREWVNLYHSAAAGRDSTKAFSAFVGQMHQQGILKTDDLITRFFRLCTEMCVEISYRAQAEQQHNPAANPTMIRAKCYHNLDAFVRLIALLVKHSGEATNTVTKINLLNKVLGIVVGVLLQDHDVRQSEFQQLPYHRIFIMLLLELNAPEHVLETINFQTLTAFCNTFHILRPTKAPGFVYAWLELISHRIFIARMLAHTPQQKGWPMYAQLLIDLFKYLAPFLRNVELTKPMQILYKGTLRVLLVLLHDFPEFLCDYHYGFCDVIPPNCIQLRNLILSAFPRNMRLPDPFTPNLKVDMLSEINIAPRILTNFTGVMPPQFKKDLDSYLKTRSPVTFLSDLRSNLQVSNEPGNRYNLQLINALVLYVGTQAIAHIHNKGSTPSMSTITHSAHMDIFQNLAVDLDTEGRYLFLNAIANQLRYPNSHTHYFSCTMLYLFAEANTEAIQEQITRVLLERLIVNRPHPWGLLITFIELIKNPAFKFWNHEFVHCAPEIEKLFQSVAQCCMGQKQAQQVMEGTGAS
UniProt Q49B96: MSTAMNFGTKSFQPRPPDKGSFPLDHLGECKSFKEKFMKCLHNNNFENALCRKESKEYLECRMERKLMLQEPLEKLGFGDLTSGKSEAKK
UniProt Q17RY0: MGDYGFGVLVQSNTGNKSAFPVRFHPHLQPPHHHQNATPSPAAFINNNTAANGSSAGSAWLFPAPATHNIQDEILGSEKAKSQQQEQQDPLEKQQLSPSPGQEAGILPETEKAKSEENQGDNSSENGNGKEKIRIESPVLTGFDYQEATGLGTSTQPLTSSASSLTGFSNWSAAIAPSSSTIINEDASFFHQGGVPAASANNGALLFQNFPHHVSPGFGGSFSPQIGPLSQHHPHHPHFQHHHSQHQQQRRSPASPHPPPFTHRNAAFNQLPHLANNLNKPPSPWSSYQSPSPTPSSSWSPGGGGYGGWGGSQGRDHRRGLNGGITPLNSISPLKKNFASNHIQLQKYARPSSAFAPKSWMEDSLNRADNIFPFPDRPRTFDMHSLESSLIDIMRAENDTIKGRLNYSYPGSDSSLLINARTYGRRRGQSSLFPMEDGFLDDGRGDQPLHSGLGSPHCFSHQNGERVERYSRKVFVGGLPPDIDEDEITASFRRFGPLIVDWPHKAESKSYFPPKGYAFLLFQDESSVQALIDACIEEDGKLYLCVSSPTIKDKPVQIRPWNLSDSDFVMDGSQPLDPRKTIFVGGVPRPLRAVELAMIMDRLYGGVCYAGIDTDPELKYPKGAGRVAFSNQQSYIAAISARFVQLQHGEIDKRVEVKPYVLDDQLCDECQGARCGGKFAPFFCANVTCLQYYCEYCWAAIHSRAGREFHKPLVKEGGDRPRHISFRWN
UniProt Q9UFF9, whole entry, looked up: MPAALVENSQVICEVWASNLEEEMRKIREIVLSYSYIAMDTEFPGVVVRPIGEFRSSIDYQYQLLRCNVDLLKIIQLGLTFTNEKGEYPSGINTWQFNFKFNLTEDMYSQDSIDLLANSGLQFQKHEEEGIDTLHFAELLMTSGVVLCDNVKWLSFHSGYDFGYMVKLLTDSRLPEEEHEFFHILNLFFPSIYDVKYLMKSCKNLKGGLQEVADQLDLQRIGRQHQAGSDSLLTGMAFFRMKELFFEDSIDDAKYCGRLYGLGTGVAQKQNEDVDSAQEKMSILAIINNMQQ

The list shows a part of the results.

Compound in the first experiment: C1=CC=C(C=C1)[C@H](COC2=CC3=C(C=C2)NC(=O)N3)NC(=O)C4=CC=CN(C4=O)CC5=CC(=C(C=C5)F)F
Description: log2 fold change, soluble protein after heating vs DMSO (PISA); higher = thermal stabilisation; K562 lysate, 10 uM; active = over 0.2 and 3.5 SD of the protein, either way, in both replicates (recomputed). The method, boiled down:
(§1)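 A 30 min treatment with 10 μM compound was applied to crude K562 extract at 1 mg/mL protein in PBS pH 7.4 with 1 mM MgCl2. Heating for 3 min spanned 48°C-58°C, after which aliquots were pooled, adjusted to 0.5% NP-40 at 4°C and spun at 21,000xg for 90 min. TMTpro 16plex LC-MS/MS of the supernatant, with channel sums equalised, gave values recorded as log-two fold change in thermal stability against solvent controls, from duplicates.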
Take COMTD1 (UniProt Q86VU5): the log2 fold change is inactive: -0.1.
On to COPS3 (UniProt Q9UNS2), for which the log2 fold change is inactive: 0.036.
Turning to COPS4 (UniProt Q9BT78), the log2 fold change was inactive: -0.024.
On to COLEC11 isoform 10 (UniProt Q9BWP8), for which the log2 fold change was inactive: 0.023.
As to COPS2 isoform 2 (UniProt P61201), the log2 fold change is inactive: -0.023.
As to CNOT7 (UniProt Q9UIV1), the log2 fold change is inactive: -0.044.
For the target COA3 (UniProt Q9Y2R0), the log2 fold change is inactive: 0.055.
On to COMMD7 (UniProt Q86VX2), for which the log2 fold change is inactive: -0.001.
The same measure, in the same setting: in the case of CNOT6 (UniProt Q9ULM6) it was inactive: 0.013; in that of COQ9 (UniProt O75208), inactive: -0.102.
Turning to CNOT3 (UniProt O75175), the log2 fold change was inactive: -0.045.
The same measure, in the same setting: with CNP (UniProt P09543) the figure was inactive: -0.022; with COG2 (UniProt Q14746), inactive: -0.038; with CNEP1R1 isoform 2 (UniProt Q8N9A8), inactive: 0.038.
In the case of COG1 (UniProt Q8WTW3), the log2 fold change is inactive: -0.053.
Take COLGALT2 (UniProt Q8IYK4): the log2 fold change is inactive: 0.017.
For the target COPS5 (UniProt Q92905), the log2 fold change is inactive: 0.009.
In the case of COMMD4 (UniProt Q9H0A8), the log2 fold change is inactive: -0.008.
The same measure, in the same setting: with CPNE8 (UniProt Q86YQ8) the figure was inactive: -0.128; with CNOT2 (UniProt Q9NZN8), inactive: 0.019; with CPED1 (UniProt A4D0V7), inactive: -0.051.
Regarding CPNE7 (UniProt Q9UBL6), the log2 fold change is inactive: 0.003.
Turning to COX5B (UniProt P10606), the log2 fold change was inactive: -0.031.
COL25A1 (UniProt Q9BXS0): the log2 fold change is inactive: -0.344.
On the same count and under the same terms, with COMMD9 (UniProt Q9P000) the figure was inactive: 0.114; with COPS7A (UniProt Q9UBW8), inactive: 0.005; with CRABP2 (UniProt P29373), inactive: -0.057.
With CNIH4 (UniProt Q9P003), the log2 fold change is inactive: -0.355.
In the case of CNOT9 (UniProt Q92600), the log2 fold change is inactive: 0.003.
For the target COL15A1 (UniProt P39059), the log2 fold change is inactive: 0.029.
Consider CNOT1 (UniProt A5YKK6), for which the log2 fold change was inactive: -0.026.
Take COX19 (UniProt Q49B96): the log2 fold change was inactive: -0.047.
CNBP (UniProt P62633): the log2 fold change was inactive: 0.095.
For the target CORO2A (UniProt Q92828), the log2 fold change is inactive: -0.204.
Consider CORO1A (UniProt P31146), for which the log2 fold change was inactive: -0.024.
In the case of CPEB4 (UniProt Q17RY0), the log2 fold change was inactive: -0.114.
Take CNOT8 (UniProt Q9UFF9): the log2 fold change was inactive: 0.007.
For the target CNRIP1 (UniProt Q96F85), the log2 fold change is inactive: 0.187.

Compound in another experiment: CC1=C(SC2=C1C(=N[C@H](C3=NN=C(N32)C)CC(=O)N)C4=CC=C(C=C4)Cl)C
Described as above. The method, boiled down: as §1
For COMTD1 (UniProt Q86VU5), the log2 fold change is inactive: 0.123.
Take COPS3 (UniProt Q9UNS2): the log2 fold change is inactive: 0.014.
The same measure, in the same setting: with COPS4 (UniProt Q9BT78) the figure was inactive: -0.083; with COLEC11 isoform 10 (UniProt Q9BWP8), inactive: 0.125.
COPS2 isoform 2 (UniProt P61201): the log2 fold change was inactive: 0.005.
Turning to CNOT7 (UniProt Q9UIV1), the log2 fold change was inactive: 0.028.
With COA3 (UniProt Q9Y2R0), the log2 fold change is inactive: -0.045.
As to COMMD7 (UniProt Q86VX2), the log2 fold change is inactive: -0.048.
Take CNOT6 (UniProt Q9ULM6): the log2 fold change was inactive: -0.004.
Turning to COQ9 (UniProt O75208), the log2 fold change is inactive: -0.069.
As to CNOT3 (UniProt O75175), the log2 fold change is inactive: 0.022.
With CNP (UniProt P09543), the log2 fold change was inactive: 0.001.
For COG2 (UniProt Q14746), the log2 fold change is inactive: -0.034.
In the case of CNEP1R1 isoform 2 (UniProt Q8N9A8), the log2 fold change was inactive: 0.103.
COG1 (UniProt Q8WTW3): the log2 fold change was inactive: -0.047.
For the target COLGALT2 (UniProt Q8IYK4), the log2 fold change was inactive: 0.019.
As to COPS5 (UniProt Q92905), the log2 fold change was inactive: -0.002.
In the case of COMMD4 (UniProt Q9H0A8), the log2 fold change is inactive: 0.008.
As for CPNE8 (UniProt Q86YQ8), the log2 fold change was inactive: 0.007.
Regarding CNOT2 (UniProt Q9NZN8), the log2 fold change is inactive: -0.016.
As for CPED1 (UniProt A4D0V7), the log2 fold change is inactive: 0.078.
In the case of CPNE7 (UniProt Q9UBL6), the log2 fold change was inactive: 0.013.
The same measure, in the same setting: in the case of COX5B (UniProt P10606) it was inactive: -0.037.
The same measure, in the same setting: with COL25A1 (UniProt Q9BXS0) the figure was inactive: 0.278; with COMMD9 (UniProt Q9P000), inactive: -0.1; with COPS7A (UniProt Q9UBW8), inactive: -0.014.
The same measure, in the same setting: with CRABP2 (UniProt P29373) the figure was inactive: -0.051.
Turning to CNIH4 (UniProt Q9P003), the log2 fold change was inactive: -0.301.
On to CNOT9 (UniProt Q92600), for which the log2 fold change is inactive: -0.005.
Take COL15A1 (UniProt P39059): the log2 fold change was inactive: 0.001.
For the target CNOT1 (UniProt A5YKK6), the log2 fold change was inactive: 0.015.
Consider COX19 (UniProt Q49B96), for which the log2 fold change was inactive: -0.013.
Same read-out and setting: in the case of CNBP (UniProt P62633) it was inactive: -0.008; in that of CORO2A (UniProt Q92828), inactive: 0.056; in that of CORO1A (UniProt P31146), inactive: 0.021.
For CPEB4 (UniProt Q17RY0), the log2 fold change is inactive: 0.042.
Same read-out and setting: with CNOT8 (UniProt Q9UFF9) the figure was inactive: -0.02; with CNRIP1 (UniProt Q96F85), inactive: -0.118.
